{
  "source": "paper PMC10383573",
  "about": "“New Imadazopyrazines with CDK9 Inhibitory Activity as Anticancer and Antiviral: Synthesis, In Silico, and In Vitro Evaluation Approaches” (Pharmaceuticals, 2023)",
  "type_in_all_cases": "cell-based",
  "key": {"HCT116 cancer cells": {"test_system": "HCT116 cancer cells", "assay": "MTT cytotoxicity assay, HCT116", "conditions": "Homo sapiens, HCT-116, 48 h, means (SD) of three trials", "experimental": "(§1) The cytotoxicity effect of the new compounds was assessed in an MTT assay against chronic myelogenous leukemia (K652), colorectal (HCT116), and breast (MCF7) cancer cell lines. […] The data is presented in Table 4 as IC50 values (in µM).\n(§2) Cells were obtained from American Type Culture Collection. The cell culture DMEM was obtained from Life Technologies and Invitrogen and supplied with 10% FBS from Hyclone, 1% penicillin-streptomycin, and 10 µg/mL insulin from Sigma-Aldrich.\n(§3) The MTT assay was used to monitor the in vitro cytotoxicity of our compounds. The cells were treated with serial concentrations of the compounds to be tested, which ranged from 0.1–10 µM at 37 °C for 48 h. Then, the cells were incubated with 10% v/v reconstituted MTT at 37 °C for 3 h. The multiwell plates were then read using Wallac Victor2 1420 multilabel counter, and the absorbance was measured at a wavelength of 450 (ex) and 590 nm (em)."}, "K652 cancer cells": {"test_system": "K652 cancer cells", "assay": "MTT cytotoxicity assay, K652", "conditions": "K652, 48 h, read-out: IC50 K652", "experimental": "as §1, §2, §3"}, "[1]": {"test_system": "MCF7, HCT116, and K652 cancer cells", "assay": "MTT cytotoxicity assay, average of the three cell lines", "experimental": "as §1, §2, §3"}, "FHC normal cells": {"test_system": "FHC normal cells", "assay": "MTT assay against FHC normal cells", "conditions": "normal noncancerous cells", "experimental": "To ensure that the cytotoxicity effect of our compounds observed on the previous assay was selective to cancer cells, the most cytotoxic agents to cancer cells (1a, 1c, 1d, 3b, and 4b) were evaluated on normal cells.\nas §3"}},
  "data": [
    {"smiles": "CN[C@@H]1C[C@H]2O[C@@](C)([C@@H]1OC)n1c3ccccc3c3c4c(c5c6ccccc6n2c5c31)C(=O)NC4", "note": "[Staurosporine, reference compound]", "values": [
      {"measurement": "IC50", "setting": "HCT116 cancer cells", "value": "10.9 ± 0.26", "unit": "µM"},
      {"measurement": "IC50", "setting": "K652 cancer cells", "value": "22.1 ± 0.56", "unit": "µM"},
      {"measurement": "IC50", "setting": "[1]", "value": 17.1, "unit": "µM"},
      {"measurement": "IC50", "setting": "FHC normal cells", "value": "38.2 ± 0.97", "unit": "µM"}
    ]}
  ]
}
